The results in this text go back to publication PMC5781259.

Protein sequences, listed by entry. Tags and fused reporters are not part of them. Residues count along the entry.
UniProt P33424: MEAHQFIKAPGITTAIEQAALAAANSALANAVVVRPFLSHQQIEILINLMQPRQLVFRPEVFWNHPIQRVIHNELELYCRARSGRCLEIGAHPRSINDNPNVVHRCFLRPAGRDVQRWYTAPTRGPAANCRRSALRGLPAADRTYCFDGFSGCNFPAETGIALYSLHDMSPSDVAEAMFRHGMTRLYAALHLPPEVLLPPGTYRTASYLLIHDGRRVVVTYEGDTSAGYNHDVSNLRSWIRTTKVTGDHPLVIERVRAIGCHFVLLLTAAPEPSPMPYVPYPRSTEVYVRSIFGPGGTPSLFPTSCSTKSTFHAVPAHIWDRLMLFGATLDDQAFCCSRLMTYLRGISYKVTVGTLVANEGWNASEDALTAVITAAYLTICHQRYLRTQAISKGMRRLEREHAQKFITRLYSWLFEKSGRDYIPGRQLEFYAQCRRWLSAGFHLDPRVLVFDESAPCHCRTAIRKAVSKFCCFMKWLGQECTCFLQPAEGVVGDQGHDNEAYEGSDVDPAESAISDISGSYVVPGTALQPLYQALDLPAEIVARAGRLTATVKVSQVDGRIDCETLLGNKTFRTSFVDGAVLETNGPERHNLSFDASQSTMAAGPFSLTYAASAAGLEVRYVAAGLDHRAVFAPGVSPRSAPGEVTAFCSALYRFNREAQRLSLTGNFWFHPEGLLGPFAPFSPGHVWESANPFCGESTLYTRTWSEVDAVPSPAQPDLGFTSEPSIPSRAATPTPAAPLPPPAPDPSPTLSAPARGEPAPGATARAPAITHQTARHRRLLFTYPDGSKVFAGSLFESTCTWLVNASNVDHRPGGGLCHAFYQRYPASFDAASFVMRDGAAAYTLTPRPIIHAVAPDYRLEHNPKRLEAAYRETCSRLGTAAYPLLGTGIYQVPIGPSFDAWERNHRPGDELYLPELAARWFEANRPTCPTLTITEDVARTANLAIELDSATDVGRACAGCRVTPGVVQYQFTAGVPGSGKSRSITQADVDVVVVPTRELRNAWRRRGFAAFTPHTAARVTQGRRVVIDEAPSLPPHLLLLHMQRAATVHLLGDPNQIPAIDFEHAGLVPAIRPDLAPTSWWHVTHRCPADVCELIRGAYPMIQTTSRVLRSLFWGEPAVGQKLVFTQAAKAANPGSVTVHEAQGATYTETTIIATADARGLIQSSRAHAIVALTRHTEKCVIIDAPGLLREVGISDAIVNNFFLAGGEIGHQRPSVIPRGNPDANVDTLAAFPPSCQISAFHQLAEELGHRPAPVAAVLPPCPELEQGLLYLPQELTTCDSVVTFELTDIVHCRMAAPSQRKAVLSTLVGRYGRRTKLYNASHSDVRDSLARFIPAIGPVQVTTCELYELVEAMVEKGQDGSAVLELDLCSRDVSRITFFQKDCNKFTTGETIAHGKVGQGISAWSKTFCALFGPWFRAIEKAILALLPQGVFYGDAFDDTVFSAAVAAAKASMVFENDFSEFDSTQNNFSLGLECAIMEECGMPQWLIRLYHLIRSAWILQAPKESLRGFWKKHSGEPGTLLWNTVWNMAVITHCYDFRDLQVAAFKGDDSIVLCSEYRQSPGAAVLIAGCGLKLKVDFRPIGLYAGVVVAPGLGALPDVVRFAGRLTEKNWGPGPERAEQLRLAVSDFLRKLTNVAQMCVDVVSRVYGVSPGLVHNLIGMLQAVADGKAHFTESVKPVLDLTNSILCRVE
UniProt P33426, residues 20-660: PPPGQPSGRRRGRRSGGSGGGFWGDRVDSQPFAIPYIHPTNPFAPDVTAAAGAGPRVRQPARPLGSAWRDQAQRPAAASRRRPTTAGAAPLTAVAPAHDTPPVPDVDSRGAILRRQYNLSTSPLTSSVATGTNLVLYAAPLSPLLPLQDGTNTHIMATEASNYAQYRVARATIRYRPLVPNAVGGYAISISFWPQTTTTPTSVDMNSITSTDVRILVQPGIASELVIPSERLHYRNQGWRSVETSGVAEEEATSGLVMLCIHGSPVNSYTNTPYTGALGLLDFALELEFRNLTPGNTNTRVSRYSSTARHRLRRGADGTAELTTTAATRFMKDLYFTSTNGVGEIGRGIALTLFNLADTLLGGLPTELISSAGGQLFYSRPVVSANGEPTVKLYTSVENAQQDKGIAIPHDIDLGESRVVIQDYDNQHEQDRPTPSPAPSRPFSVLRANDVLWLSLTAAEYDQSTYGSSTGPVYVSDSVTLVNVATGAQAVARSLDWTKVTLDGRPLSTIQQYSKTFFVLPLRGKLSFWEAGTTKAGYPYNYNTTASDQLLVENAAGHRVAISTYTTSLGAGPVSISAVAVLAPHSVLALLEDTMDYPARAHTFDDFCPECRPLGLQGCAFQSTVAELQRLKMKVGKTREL
UniProt P06730: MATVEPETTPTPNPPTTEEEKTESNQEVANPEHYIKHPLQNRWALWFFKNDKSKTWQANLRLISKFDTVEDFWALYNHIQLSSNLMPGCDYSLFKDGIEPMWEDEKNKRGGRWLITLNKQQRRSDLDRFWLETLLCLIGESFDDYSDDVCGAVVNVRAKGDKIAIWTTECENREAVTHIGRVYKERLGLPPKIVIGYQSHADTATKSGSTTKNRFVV
UniProt Q14240: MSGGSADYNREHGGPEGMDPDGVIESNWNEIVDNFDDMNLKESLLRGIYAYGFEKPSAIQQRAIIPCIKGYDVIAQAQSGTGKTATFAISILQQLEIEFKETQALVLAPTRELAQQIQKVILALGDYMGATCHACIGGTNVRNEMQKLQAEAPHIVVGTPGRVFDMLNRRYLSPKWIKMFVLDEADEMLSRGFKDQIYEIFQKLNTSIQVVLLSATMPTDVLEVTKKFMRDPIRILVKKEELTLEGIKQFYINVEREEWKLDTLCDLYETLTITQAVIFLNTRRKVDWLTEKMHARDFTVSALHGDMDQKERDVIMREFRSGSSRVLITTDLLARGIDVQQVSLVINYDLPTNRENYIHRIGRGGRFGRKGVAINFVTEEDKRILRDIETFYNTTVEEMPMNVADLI
UniProt P07437: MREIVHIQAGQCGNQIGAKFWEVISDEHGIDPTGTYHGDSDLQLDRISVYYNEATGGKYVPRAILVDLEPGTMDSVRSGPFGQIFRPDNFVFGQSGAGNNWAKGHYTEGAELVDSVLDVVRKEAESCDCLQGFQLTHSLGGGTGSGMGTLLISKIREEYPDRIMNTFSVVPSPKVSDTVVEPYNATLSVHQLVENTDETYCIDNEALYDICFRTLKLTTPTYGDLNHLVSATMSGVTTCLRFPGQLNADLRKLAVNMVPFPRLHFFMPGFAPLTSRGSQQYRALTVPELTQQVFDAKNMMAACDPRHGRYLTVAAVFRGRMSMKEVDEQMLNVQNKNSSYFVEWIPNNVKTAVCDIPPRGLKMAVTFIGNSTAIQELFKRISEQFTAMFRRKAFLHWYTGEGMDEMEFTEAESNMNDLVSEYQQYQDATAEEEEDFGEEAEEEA
UniProt P68104: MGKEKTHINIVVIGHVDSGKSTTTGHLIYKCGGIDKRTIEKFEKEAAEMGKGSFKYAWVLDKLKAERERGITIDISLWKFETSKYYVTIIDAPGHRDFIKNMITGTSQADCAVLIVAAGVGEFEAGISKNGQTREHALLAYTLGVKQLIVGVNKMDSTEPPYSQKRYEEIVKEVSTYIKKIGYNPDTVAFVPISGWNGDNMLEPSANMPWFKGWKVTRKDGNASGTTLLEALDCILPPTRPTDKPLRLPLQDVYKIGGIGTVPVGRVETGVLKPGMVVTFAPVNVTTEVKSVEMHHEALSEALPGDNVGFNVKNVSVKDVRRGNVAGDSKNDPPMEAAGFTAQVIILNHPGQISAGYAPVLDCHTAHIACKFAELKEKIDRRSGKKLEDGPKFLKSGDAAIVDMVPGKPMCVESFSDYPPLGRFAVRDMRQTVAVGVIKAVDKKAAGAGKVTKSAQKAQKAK
UniProt Q15365: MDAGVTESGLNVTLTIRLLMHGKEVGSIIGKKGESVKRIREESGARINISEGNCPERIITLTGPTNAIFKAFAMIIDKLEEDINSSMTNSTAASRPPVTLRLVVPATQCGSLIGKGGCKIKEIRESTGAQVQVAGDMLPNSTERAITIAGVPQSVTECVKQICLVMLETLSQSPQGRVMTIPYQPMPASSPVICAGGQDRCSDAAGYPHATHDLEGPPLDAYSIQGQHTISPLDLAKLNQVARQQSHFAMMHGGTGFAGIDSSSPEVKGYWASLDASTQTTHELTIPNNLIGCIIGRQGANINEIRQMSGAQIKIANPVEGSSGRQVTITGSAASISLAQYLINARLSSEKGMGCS

Test [1] has as its target ORF1-Flag, g-1 HEV ORF1 polypeptide expressed in Huh7 (hepatitis E virus genotype 1) (UniProt P33424). As to the kind of experiment: co-IP.
For test [2], the target named is ORF1-Flag, g-1 HEV ORF1 polypeptide made by in vitro transcription-translation (hepatitis E virus genotype 1) (UniProt P33424). As to the kind of experiment: pull-down.
For test [3], the target named is ORF2-Flag, g-1 HEV ORF2 protein expressed in Huh7 (hepatitis E virus genotype 1) (UniProt P33426). As to the kind of experiment: co-IP.

No constants are given. Whether binding was seen depends on the method and setting. Binding seen in cells or lysates may run through a third protein. Some binding calls cover weakened binding; strength is not graded here.

Regarding “eIF4E in Huh7 extract (from UniProt P06730 1-217)”, the binding entry in test [1] and in test [2] was “binds” throughout.
Turning to “eIF4A2 in Huh7 extract (from UniProt Q14240 1-407)”, the binding result in test [1] and in test [2] was “binds” in each case.
Consider “TUBB in Huh7 extract (from UniProt P07437 1-444)”, for which the binding entry in test [1] and in test [2] was “binds” each time.
As to “eEF1A1 in Huh7 extract (from UniProt P68104 1-462)”, the binding entry in test [1] and in test [2] was “binds” each time.
In the case of “PCBP1 in Huh7 extract (from UniProt Q15365 1-356)”, the binding entry in test [3] is recorded as “binds”.
